The values that follow are results of earlier work, collected in patent publication US6414014B1 (Bristol-Myers Squibb Company, priority 1992, dated 2002).

For this data set the following is noted: cited from earlier work.

SMILES strings stand for the structures.

With `CC(=O)O[C@H]1C(=O)[C@@]2(C)[C@H]([C@H](OC(=O)c3ccccc3)[C@]3(O)C[C@H](OC(=O)[C@H](O)[C@@H](NC(=O)c4ccccc4)c4ccccc4)C(C)=C1C3(C)C)[C@]1(OC(C)=O)CO[C@@H]1C[C@@H]2O` [taxol], the solubility in water result is given as “extremely low”.
